Test [1] in a line: S16 Schwann cell PMP22 intronic element beta-lactamase assay (AID 624044). Particulars: S16 rat Schwann cells, PMP22 element beta-lactamase FRET, 24 h. The gist of the method: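 Beta-lactamase reporter under a PMP22 intronic regulatory element in stable S16 rat Schwann cells; 24 h compound exposure. 460 nm blue signal normalized between DMSO (0%) and potassium clavulanate, with 535 nm FRET tracking viability; curves classed by r2 and response.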

By UniProt entry, the sequences of proteins in these tests, tags left out. Where a name states a change or a piece, a line headed by the entry shows the natural chain unless it says otherwise.
UniProt P21964: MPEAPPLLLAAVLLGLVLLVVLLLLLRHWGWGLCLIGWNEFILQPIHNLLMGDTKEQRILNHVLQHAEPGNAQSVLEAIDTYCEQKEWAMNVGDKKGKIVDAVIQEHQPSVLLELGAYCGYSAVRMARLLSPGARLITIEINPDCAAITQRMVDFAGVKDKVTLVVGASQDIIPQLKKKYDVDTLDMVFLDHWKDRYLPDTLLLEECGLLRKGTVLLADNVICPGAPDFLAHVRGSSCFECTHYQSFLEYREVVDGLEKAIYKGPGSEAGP

Test [2] can be described thus: A High-Content qHTS Against Drug Library for the Identification of Small Molecules that Inhibit DYT1 Early Onset Primary Dystonia-Associated Cell Pathology (AID 1645839). To be noted: HEK293 Flp-In EGFP-delE TorsinA, punctate imaging, 48 h; measured here: cell count cytotoxicity. The gist of the method:
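Cells were seeded and left for 24 h, then dosed with compound alongside tetracycline induction of mutant EGFP-TorsinA. They were incubated for 48 h, fixed in 4% paraformaldehyde, permeabilized and imaged for mislocalization (%pathology) and cell count.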

The target of test [3] is Catechol O-methyltransferase (Homo sapiens) (UniProt P21964). The test is described as follows: Confirmatory Screen for Target Class Profiling of Small Molecule Inhibitors of Methyltransferases (AID 1745852). To be noted: MTase-Glo luminescence, SAH detection, recombinant enzyme; measured here: COMT inhibition potency.
Test [4] in a line: qHTS assay for small molecule antagonists of peroxisome proliferator-activated receptor gamma signaling (AID 588537). Particulars: HEK293 PPARg-UAS-bla, beta-lactamase ratio, antagonist mode; measured here: W460 blue channel. An outline of the steps:
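Read-out: CCF4 fluorescence (ex 405, em 460/530 nm) after 2 h at RT. Cells were HEK293 carrying a UAS-bla reporter and treated 16 h at 37 C with compound plus rosiglitazone (50 nM final). Normalized to rosiglitazone and DMSO.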

Test [5] is described as follows: qHTS assay for small molecule agonists of retinoid X receptor alpha signaling (AID 588544). Particulars: HEK293T RXRa-UAS-bla, beta-lactamase reporter, 18 h; 530 nm emission.
A short description of test [6]: qHTS assay for small molecule antagonists of retinoid X receptor alpha signaling (AID 588546).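 Also: cells stimulated with 9-cis-retinoic acid as agonist; % is scaled to controls: 0 for no effect and ±100 for the full control effect.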 To be noted: HEK293T RXRa-UAS-bla, beta-lactamase ratio, antagonist mode; measured here: W530 green channel, cytotoxicity proxy. An outline of the steps: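 Beta-lactamase reporter inhibition, read as CCF4 fluorescence ratio (ex 405, em 460/530 nm) after 2 h at RT. HEK293T UAS-bla cells, 2500/well, were stimulated with 9-cis-RA at 500 or 100 nM final alongside test compound for 18 h at 37 C.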

A short description of test [7]: qHTS assay for small molecule antagonists of peroxisome proliferator-activated receptor delta signaling (AID 588535).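 Also: cells co-treated with a PPAR-delta agonist as stimulator during compound exposure.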 To be noted: HEK293T PPARd-UAS-bla, beta-lactamase FRET ratio, 18 h; 460 nm channel. The gist of the method: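 Beta-lactamase reporter read-out (405 nm excitation, 460/530 nm emission) after CCF4 loading for 2 hrs at RT. HEK293T PPAR-delta-UAS-bla cells, 2% charcoal/dextran FBS, compounds for 18 hrs at 37 C. Hill fit gave IC50 and efficacy.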

[8] abbreviates: measured here: 460 nm blue channel.

We go through 16 compounds from PubChem BioAssay (NCATS).

The list shows a part of the results. Further columns of the screen follow, without active or inactive calls. Compounds called inactive in the main read-out are mostly missing here. For some assays here: Words in brackets tell the shape of the fitted curve; partial curves, single points and poor fits give uncertain potencies.

`CNCCc1ccccn1`: the AC50 in test [1] (setting [8]) was 0.755 µM [falling, full curve, poor fit]; in test [2] it was 11.2 µM [falling, partial curve, poor fit].
With `CCCCCCCCCCCCCC[N+](C)(C)C`, the AC50 in test [1] (setting [8]) was 22.4 µM [falling, partial curve]; in test [2], 7.08 µM [falling, full curve, poor fit].
Consider `Oc1ccc(CNc2ccccc2F)c2cccnc12`, for which the IC50 in test [3] was 10.8 µM [falling, partial curve].
Consider `CCOc1nc2cccc(C(=O)O)c2n1Cc1ccc(-c2ccccc2-c2nn[nH]n2)cc1`, for which the AC50 was 0.0158 µM [falling, full curve, poor fit] in test [1] (setting [8]) and 35.5 µM [rising, partial curve, poor fit] in test [2].
For the compound `Nc1cccc2c(N)cccc12`, the AC50 is 50.1 µM [rising, single point] in test [4] and 0.891 µM [falling, full curve, poor fit] in test [2]. Besides, the max response in test [5] came to 18.4%.
As to `CCCCCCCCCCCCOCCOCCOCCOCCOCCOCCOCCOCCOCCO`, the AC50 in test [1] (setting [8]) was 17.8 µM [falling, partial curve, poor fit]; in test [2], 15.8 µM [falling, single point].
Turning to `C#C[C@]1(OC(C)=O)CC[C@H]2[C@@H]3CCC4=C[C@@H](OC(C)=O)CC[C@@H]4[C@H]3CC[C@@]21C`, the concentration at half-maximal activity (AC50) in test [1] (setting [8]) was 17.8 µM [rising, partial curve, poor fit]; in test [2], 14.1 µM [falling, single point].
As to `Nc1ccc([N+](=O)[O-])cc1O`, the max response in test [5] is -12.6%. Also, the AC50 in test [2] is 7.94 µM [falling, partial curve].
`CCCCCCCCCCCC[N+](C)(C)Cc1ccccc1`: the max response turned out to be 39.6% in test [5] and 14.1% in test [6]. Also, the AC50 in test [2] is 35.5 µM [falling, single point].
As for `COc1cc(C(O)C(CO)Oc2ccc(CCCO[C@@H]3O[C@@H](C)[C@H](O)[C@@H](O)[C@H]3O)cc2OC)ccc1O` (stereo not given in full), the IC50 in test [3] is 6.63 µM [falling, partial curve].
In the case of `Cc1ccc2c(Br)cc(Br)c(O)c2n1`, the AC50 in test [1] (setting [8]) is 15.8 µM [falling, partial curve]; in test [1] (measured here: 530 nm viability channel), 20 µM [rising, partial curve]; in test [2], 2.82 µM [falling, full curve].
On to `CCCN(CCc1cccs1)[C@H]1CCc2c(O)cccc2C1`, for which the AC50 in test [1] (setting [8]) is 8.91 µM [falling, full curve]; in test [2] it was 1.78 µM [falling, full curve].
On to `C=C1C(=O)OC2/C=C(\CO)CC/C=C(\C=O)C(OC)C(OC(=O)C(C)CC)C12` (stereo not given), for which the IC50 in test [3] was 0.527 µM [falling, full curve].
`NC(=Nc1ccccc1)Nc1ccccc1`: the max response in test [5] is 12.5%. Further, the AC50 in test [2] was 7.94 µM [falling, full curve, poor fit].
`CC(C)(C)CC(C)(C)c1ccc(O)c(-n2nc3ccccc3n2)c1`: the max response is 15.2% in test [7], 51.2% in test [5] and -2.94% in test [6]. Also, the AC50 in test [1] (setting [8]) is 1.41 µM [falling, full curve]; in test [2] it was 22.4 µM [rising, partial curve, poor fit].
Take `CCN(CC)CCCN(c1ccccc1)C1Cc2ccccc2C1`: the AC50 was 2.24 µM [falling, full curve, poor fit] in test [1] (setting [8]) and 12.6 µM [falling, partial curve] in test [2].
